In publication PMC7029883:
No constants are given. Whether binding was seen depends on the method and setting. Binding seen in cells or lysates may run through a third protein. Some entries that bind do so weakly or less than the wild type. Where a sequence is shown, tags or fusion partners need not be part of it.

The chains behind the UniProt entries cited, without tags or fusion partners.
UniProt Q7Z434: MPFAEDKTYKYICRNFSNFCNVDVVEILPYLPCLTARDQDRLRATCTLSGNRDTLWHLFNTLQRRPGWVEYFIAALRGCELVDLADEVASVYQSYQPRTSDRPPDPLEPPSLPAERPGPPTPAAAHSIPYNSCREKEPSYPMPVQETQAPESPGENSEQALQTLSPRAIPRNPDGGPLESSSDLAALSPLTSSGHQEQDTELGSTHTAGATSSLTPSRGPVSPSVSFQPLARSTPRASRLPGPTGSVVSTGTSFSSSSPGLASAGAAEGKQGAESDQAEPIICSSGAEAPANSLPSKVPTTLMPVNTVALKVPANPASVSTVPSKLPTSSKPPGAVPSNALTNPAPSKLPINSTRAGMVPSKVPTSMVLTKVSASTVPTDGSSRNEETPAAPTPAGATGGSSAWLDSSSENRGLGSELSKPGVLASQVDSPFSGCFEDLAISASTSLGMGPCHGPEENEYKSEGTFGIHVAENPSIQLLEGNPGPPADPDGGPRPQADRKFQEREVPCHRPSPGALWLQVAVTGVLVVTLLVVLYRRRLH

T1: Flag-tagged USP27X (human) (UniProt A6NNY8)
T1 sequence: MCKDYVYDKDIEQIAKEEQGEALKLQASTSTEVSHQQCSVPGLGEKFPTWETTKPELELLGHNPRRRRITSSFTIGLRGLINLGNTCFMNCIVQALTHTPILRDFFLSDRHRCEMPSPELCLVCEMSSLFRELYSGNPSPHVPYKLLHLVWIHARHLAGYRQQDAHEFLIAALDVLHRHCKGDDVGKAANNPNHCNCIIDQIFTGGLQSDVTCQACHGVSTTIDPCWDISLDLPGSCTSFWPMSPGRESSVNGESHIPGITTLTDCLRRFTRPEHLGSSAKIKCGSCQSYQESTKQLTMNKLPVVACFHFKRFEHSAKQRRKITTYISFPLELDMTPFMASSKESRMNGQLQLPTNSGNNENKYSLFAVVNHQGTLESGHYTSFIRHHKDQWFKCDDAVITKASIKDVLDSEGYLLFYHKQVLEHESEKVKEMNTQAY

T2: Flag-tagged full-length RIG-I (human) (UniProt O95786)
T2 sequence: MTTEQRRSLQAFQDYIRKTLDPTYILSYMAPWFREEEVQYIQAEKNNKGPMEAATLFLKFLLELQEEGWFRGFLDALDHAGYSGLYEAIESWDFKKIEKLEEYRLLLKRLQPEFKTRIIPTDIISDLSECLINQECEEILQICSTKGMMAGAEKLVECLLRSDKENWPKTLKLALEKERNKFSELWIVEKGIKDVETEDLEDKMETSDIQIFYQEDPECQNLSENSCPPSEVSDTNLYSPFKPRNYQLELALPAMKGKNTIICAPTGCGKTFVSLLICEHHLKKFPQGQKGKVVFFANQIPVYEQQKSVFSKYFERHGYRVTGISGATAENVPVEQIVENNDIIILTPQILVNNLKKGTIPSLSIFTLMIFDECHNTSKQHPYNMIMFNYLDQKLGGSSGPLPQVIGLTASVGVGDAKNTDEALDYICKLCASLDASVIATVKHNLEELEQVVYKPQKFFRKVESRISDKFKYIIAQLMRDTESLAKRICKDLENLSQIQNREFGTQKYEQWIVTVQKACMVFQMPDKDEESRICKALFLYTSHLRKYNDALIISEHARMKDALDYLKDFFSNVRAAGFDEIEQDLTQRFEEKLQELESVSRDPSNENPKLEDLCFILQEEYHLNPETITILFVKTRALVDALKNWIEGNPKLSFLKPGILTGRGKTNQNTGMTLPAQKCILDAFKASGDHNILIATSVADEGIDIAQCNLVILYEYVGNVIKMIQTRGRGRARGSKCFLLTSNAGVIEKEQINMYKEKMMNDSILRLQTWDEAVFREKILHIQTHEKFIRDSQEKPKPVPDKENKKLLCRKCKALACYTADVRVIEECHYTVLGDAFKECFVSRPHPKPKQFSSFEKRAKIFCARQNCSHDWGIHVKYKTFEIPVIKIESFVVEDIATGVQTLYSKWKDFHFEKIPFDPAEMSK

T3: RIG-I (endogenous, HEK293T) (human (endogenous in HEK293T)) (UniProt O95786)
T3 sequence: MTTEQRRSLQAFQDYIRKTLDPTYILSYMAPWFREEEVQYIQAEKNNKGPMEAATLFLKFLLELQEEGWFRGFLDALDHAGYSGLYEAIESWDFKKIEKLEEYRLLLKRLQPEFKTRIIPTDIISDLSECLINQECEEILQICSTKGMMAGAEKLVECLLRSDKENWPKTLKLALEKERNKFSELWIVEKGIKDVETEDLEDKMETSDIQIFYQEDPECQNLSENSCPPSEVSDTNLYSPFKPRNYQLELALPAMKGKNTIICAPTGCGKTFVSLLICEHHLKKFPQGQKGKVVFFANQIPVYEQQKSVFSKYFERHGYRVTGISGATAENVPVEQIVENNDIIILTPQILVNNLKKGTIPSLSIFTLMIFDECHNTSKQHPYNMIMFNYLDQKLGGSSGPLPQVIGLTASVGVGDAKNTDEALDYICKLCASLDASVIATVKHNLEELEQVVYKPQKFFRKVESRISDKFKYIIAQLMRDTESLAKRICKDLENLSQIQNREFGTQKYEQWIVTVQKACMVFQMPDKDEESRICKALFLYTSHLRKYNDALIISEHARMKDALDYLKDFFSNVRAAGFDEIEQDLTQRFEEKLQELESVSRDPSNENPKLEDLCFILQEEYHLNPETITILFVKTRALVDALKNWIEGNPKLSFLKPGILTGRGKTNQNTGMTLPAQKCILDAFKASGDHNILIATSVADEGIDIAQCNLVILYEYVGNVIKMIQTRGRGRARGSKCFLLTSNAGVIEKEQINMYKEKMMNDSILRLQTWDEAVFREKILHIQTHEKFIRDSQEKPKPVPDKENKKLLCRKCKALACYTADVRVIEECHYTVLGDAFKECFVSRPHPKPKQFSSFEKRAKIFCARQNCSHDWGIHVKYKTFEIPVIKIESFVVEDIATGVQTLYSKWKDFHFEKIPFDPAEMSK


How the values were obtained:
[1] = target: T1, Flag-tagged USP27X (human); assay: co-IP; HepG2 cells transfected with Flag-USP27X or Flag-USP27X-72, mock-infected or infected with SeV for 18 h; anti-Flag beads; immunoblot for endogenous components
Flag-tagged MAVS (human) = Flag-tagged MAVS (human) (UniProt Q7Z434); assay: co-IP; HEK293T cells co-transfected with Flag-tagged baits and USP27X constructs; lysis in 0.5% Triton X-100, 20 mM Tris-HCl pH 7.5, 150 mM NaCl, 10% glycerol, 1 mM EDTA; anti-Flag agarose beads 4 h; washes with 300 mM NaCl; immunoblot
[2] = target: T2, Flag-tagged full-length RIG-I (human); assay: as above
[3] = target: T3, RIG-I (endogenous, HEK293T) (human (endogenous in HEK293T)); assay: co-IP; semi-endogenous IP: HEK293T cells transfected with Myc-USP27X or Myc-USP27X-72, mock-infected or infected with SeV for 12 h; lysates with anti-RIG-I antibody overnight at 4°C, then protein A/G beads 2 h; immunoblot

binding [1]	binding (Flag-tagged MAVS (human))	binding [2]	binding [3]	Binder
binds	–	–	–	RIG-I (endogenous, HepG2) (protein, UniProt O95786-1 1-925) MTTEQRRSLQAFQDYIRKTLDPTYILSYMAPWFREEEVQYIQAEKNNKGPMEAATLFLKFLLELQEEGWFRGFLDALDHAGYSGLYEAIESWDFKKIEKLEEYRLLLKRLQPEFKTRIIPTDIISDLSECLINQECEEILQICSTKGMMAGAEKLVECLLRSDKENWPKTLKLALEKERNKFSELWIVEKGIKDVETEDLEDKMETSDIQIFYQEDPECQNLSENSCPPSEVSDTNLYSPFKPRNYQLELALPAMKGKNTIICAPTGCGKTFVSLLICEHHLKKFPQGQKGKVVFFANQIPVYEQQKSVFSKYFERHGYRVTGISGATAENVPVEQIVENNDIIILTPQILVNNLKKGTIPSLSIFTLMIFDECHNTSKQHPYNMIMFNYLDQKLGGSSGPLPQVIGLTASVGVGDAKNTDEALDYICKLCASLDASVIATVKHNLEELEQVVYKPQKFFRKVESRISDKFKYIIAQLMRDTESLAKRICKDLENLSQIQNREFGTQKYEQWIVTVQKACMVFQMPDKDEESRICKALFLYTSHLRKYNDALIISEHARMKDALDYLKDFFSNVRAAGFDEIEQDLTQRFEEKLQELESVSRDPSNENPKLEDLCFILQEEYHLNPETITILFVKTRALVDALKNWIEGNPKLSFLKPGILTGRGKTNQNTGMTLPAQKCILDAFKASGDHNILIATSVADEGIDIAQCNLVILYEYVGNVIKMIQTRGRGRARGSKCFLLTSNAGVIEKEQINMYKEKMMNDSILRLQTWDEAVFREKILHIQTHEKFIRDSQEKPKPVPDKENKKLLCRKCKALACYTADVRVIEECHYTVLGDAFKECFVSRPHPKPKQFSSFEKRAKIFCARQNCSHDWGIHVKYKTFEIPVIKIESFVVEDIATGVQTLYSKWKDFHFEKIPFDPAEMSK
–	binds	binds	binds	Myc-tagged USP27X (enzyme, UniProt A6NNY8 1-438) MCKDYVYDKDIEQIAKEEQGEALKLQASTSTEVSHQQCSVPGLGEKFPTWETTKPELELLGHNPRRRRITSSFTIGLRGLINLGNTCFMNCIVQALTHTPILRDFFLSDRHRCEMPSPELCLVCEMSSLFRELYSGNPSPHVPYKLLHLVWIHARHLAGYRQQDAHEFLIAALDVLHRHCKGDDVGKAANNPNHCNCIIDQIFTGGLQSDVTCQACHGVSTTIDPCWDISLDLPGSCTSFWPMSPGRESSVNGESHIPGITTLTDCLRRFTRPEHLGSSAKIKCGSCQSYQESTKQLTMNKLPVVACFHFKRFEHSAKQRRKITTYISFPLELDMTPFMASSKESRMNGQLQLPTNSGNNENKYSLFAVVNHQGTLESGHYTSFIRHHKDQWFKCDDAVITKASIKDVLDSEGYLLFYHKQVLEHESEKVKEMNTQAY
